Measurements reported in patent US20150037311A1.
Results are given in words; binding and its absence hold for the method and conditions named. Binding seen in cells or lysates may run through a third protein. Some entries that bind do so weakly or less than the wild type. Where a sequence is shown, tags or fusion partners need not be part of it.

Amino acid sequences for entries named in this document (tags omitted). Residues count along the entry.
UniProt Q91ZX7, residues 20-4545: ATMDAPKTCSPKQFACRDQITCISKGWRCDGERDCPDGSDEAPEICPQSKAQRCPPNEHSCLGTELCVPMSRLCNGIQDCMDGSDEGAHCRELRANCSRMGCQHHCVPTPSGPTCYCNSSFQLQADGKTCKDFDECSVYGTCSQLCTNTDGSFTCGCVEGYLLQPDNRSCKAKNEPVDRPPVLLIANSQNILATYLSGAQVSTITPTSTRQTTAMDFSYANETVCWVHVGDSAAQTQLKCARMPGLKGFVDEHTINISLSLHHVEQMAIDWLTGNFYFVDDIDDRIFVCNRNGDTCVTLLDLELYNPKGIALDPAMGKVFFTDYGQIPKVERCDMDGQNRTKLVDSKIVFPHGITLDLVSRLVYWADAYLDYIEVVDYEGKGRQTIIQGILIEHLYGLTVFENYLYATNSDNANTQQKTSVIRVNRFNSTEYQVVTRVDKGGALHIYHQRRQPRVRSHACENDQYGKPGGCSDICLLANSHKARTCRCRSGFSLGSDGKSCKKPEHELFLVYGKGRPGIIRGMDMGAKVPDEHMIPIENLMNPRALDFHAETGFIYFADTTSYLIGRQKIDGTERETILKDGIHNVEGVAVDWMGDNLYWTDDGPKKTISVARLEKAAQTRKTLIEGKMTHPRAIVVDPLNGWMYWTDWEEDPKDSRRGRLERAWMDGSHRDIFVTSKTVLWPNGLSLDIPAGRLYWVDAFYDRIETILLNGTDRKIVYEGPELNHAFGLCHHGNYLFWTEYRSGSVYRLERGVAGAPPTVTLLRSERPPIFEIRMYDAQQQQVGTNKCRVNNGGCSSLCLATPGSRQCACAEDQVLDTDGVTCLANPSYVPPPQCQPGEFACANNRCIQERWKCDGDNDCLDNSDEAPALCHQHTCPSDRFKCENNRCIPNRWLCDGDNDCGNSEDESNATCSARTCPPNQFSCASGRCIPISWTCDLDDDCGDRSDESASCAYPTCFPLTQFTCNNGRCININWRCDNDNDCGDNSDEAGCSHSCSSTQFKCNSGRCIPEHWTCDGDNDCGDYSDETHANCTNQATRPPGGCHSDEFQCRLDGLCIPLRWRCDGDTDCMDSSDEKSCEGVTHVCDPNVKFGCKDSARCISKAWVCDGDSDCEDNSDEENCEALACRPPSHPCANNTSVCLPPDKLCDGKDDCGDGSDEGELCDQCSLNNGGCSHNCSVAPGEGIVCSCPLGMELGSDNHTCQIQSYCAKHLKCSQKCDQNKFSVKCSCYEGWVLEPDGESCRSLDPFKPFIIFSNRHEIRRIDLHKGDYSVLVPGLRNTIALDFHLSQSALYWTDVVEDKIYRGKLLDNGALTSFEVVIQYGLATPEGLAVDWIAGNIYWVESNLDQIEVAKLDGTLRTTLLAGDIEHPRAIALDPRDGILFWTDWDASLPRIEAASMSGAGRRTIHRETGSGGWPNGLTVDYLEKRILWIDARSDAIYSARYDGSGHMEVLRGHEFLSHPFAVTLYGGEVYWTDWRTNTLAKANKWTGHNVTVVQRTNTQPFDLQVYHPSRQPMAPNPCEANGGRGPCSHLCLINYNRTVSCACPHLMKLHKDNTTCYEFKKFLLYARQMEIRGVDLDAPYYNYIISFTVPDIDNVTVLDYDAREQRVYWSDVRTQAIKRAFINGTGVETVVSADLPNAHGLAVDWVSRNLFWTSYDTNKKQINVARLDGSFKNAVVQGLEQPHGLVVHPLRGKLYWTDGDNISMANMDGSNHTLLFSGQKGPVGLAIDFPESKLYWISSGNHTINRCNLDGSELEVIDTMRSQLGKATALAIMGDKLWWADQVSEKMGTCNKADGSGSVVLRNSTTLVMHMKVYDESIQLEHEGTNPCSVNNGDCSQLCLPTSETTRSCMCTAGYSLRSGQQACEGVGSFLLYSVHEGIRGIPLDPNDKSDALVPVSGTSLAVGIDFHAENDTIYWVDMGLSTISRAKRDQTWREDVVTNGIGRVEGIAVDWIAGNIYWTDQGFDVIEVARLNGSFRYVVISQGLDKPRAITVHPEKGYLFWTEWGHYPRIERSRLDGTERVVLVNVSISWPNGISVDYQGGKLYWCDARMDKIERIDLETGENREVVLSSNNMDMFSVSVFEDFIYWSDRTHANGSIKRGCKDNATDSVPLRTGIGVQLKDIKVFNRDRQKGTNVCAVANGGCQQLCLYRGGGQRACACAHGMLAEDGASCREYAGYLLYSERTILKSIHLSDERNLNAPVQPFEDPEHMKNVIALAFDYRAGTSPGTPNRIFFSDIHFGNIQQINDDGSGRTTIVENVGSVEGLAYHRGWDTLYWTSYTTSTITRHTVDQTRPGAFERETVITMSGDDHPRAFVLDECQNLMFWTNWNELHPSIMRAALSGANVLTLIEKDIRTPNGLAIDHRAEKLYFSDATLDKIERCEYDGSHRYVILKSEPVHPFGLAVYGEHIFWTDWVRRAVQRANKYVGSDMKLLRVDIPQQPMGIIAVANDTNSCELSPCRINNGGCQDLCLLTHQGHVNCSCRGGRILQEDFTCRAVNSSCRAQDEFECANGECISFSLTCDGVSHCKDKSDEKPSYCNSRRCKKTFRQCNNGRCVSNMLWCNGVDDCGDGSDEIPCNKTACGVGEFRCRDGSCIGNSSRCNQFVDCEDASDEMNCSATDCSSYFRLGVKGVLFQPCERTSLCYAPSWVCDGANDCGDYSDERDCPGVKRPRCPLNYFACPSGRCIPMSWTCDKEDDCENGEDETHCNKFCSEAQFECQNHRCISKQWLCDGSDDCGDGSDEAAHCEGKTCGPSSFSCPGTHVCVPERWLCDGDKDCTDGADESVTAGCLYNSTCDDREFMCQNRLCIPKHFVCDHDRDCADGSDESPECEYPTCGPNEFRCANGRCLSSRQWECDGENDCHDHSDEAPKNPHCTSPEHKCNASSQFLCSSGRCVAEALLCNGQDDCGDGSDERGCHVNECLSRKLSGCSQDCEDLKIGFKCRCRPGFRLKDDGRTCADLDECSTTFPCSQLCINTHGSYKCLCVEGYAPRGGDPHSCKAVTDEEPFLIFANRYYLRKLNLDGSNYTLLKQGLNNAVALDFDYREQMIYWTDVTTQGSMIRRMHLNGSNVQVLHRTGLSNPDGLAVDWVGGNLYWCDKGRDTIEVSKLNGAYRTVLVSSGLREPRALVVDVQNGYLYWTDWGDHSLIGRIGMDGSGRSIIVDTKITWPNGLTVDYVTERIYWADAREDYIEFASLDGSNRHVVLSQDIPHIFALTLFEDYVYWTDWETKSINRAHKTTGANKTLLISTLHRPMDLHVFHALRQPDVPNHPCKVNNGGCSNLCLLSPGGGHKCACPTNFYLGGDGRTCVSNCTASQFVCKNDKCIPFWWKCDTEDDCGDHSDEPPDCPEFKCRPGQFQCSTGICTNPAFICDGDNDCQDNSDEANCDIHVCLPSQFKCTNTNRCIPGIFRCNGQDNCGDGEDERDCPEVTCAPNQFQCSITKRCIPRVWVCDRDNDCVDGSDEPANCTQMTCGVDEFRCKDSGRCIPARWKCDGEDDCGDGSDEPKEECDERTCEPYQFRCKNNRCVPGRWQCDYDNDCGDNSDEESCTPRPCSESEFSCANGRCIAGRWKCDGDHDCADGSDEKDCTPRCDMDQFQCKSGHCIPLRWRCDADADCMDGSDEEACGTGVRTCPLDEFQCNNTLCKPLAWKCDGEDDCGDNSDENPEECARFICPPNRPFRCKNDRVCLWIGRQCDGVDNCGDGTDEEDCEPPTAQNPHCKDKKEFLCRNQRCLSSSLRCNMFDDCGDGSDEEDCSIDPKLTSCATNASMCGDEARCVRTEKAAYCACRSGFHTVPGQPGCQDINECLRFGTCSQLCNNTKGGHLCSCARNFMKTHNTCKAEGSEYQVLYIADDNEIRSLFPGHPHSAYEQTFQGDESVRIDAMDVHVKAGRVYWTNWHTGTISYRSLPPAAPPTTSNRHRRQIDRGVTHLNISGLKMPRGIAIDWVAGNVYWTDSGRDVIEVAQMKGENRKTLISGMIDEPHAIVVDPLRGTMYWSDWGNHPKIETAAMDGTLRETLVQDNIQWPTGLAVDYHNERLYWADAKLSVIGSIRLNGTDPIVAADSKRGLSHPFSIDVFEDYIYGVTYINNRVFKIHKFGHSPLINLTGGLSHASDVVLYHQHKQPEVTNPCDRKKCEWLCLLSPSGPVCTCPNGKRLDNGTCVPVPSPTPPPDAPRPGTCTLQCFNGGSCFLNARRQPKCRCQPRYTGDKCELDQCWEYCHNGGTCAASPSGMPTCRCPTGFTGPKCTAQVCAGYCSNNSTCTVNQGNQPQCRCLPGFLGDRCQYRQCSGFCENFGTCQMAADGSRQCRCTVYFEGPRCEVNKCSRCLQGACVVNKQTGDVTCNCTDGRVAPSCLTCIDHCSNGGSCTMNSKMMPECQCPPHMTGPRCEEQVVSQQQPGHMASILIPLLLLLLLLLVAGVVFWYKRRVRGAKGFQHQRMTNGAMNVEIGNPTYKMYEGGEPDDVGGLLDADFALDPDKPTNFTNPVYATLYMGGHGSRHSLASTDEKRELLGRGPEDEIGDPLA

Key:
[1] = target: LRP1 (UniProt Q91ZX7); assay: co-immunoprecipitation, western blots (FIG. 39B)
[2] = target: LRP1 (UniProt Q91ZX7); assay: co-immunoprecipitation: LRP1-expressing RAW 264.7 cells incubated with enzyme, IP with anti-IDUA antibody, western blot for LRP1

binding [1]: binds
binding [2]: binds
B1: An2-IDUA fusion protein (Angiopep-2 fused to the N-terminus of human alpha-L-iduronidase) (enzyme)
chain: TFFYGGSRGKRNNFKTEEYAPHLVHVDAARALWPLRRFWRSTGFCPPLPHSQADQYVLSWDQQLNLAYVGAVPHRGIKQVRTHWLLELVTTRGSTGRGLSYNFTHLDGYLDLLRENQLLPGFELMGSASGHFTDFEDKQQVFEWKDLVSSLARRYIGRYGLAHVSKWNFETWNEPDHHDFDNVSMTMQGFLNYYDACSEGLRAASPALRLGGPGDSFHTPPRSPLSWGLLRHCHDGTNFFTGEAGVRLDYISLHRKGARSSISILEQEKVVAQQIRQLFPKFADTPIYNDEADPLVGWSLPQPWRADVTYAAMVVKVIAQHQNLLLANTTSAFPYALLSNDNAFLSYHPHPFAQRTLTARFQVNNTRPPHVQLLRKPVLTAMGLLALLDEEQLWAEVSQAGTVLDSNHTVGVLASAHRPQGPADAWRAAVLIYASDDTRAHPNRSVAVTLRLRGVPPGPGLVYVTRYLDNGLCSPDGEWRRLGRPVFPTAEQFRRMRAAEDPVAAAPRPLPAGGRLTLRPALRLPSLLLVHVCARPEKPPGQVTRLRALPLTQGQLVLVWSDEHVGSKCLWTYEIQFSQDGKAYTPVSRKPSTFNLFVFSPDTGAVSGSYRVRALDYWARPGPFSDPVPYLEVPVPRGPPSPGNP
